Measurements as given in patent publication US20180340025A1.
Positions count from the first letter of the chain named. These are yes or no findings as the source states them, for the method shown. Some binding calls cover weakened binding; strength is not graded here. For part of these data: Where a sequence is shown, tags or fusion partners need not be part of it. Each block holds one binder with its values, some of them ahead of it.

What was measured:
[1] = target: T1, LAG-3-huIgG1 Fc fusion protein (human) (UniProt P18627); assay: FACS blocking assay: serial dilutions of the mAb with LAG-3-huIgG1 Fc at 2 µg/mL on Daudi cells (MHC class II); bound LAG-3-Ig detected with PE anti-human IgG F(ab')2
T1 sequence (looked up): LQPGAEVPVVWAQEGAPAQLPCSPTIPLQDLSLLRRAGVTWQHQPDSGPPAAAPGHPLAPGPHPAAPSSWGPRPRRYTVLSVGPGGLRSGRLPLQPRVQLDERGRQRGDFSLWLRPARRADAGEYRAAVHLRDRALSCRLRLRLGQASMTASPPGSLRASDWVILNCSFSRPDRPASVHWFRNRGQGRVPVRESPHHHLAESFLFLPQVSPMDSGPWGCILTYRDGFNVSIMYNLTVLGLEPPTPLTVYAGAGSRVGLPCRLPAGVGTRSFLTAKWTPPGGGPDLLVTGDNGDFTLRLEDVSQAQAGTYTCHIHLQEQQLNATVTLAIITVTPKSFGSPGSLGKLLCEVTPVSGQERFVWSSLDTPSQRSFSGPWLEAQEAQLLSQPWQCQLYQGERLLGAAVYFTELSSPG

[2] = target: T2, LAG-3 with D2 deletion expressed on CHO cells (UniProt P18627); assay: binding to transfected CHO cells
T2 sequence (looked up): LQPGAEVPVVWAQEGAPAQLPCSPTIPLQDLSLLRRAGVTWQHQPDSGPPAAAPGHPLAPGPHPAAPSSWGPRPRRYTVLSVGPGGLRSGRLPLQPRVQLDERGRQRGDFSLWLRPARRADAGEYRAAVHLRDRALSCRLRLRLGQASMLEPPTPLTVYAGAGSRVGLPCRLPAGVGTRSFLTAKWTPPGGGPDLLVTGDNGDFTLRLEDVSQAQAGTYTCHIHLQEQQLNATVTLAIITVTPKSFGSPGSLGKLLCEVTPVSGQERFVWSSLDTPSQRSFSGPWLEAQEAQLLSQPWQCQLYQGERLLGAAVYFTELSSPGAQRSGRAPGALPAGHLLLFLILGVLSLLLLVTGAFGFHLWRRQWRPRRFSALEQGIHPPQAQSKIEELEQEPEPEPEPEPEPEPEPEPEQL

[3] = target: T3, LAG-3 with partial deletion of D1 extra loop expressed on CHO cells (UniProt P18627); assay: binding to transfected CHO cells
T3 sequence (looked up): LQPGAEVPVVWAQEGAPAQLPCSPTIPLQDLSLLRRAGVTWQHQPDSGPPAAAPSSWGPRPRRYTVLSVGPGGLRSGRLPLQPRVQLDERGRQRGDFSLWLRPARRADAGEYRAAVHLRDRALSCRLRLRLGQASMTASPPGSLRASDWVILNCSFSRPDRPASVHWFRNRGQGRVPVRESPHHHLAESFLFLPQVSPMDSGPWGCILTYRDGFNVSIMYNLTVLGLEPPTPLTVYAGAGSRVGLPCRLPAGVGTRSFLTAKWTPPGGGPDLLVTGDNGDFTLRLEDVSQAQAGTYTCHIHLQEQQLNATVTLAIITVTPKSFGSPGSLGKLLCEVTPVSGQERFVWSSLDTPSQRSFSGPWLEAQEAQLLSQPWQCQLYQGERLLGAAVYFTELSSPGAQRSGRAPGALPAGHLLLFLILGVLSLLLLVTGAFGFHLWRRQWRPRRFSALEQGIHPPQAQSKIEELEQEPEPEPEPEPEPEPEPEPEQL

- binding [1]: binds
B1: BAP050-hum02-Ser (antibody, human IgG4 S228P, kappa, V domains shown)
VH: EVQLVQSGAEVKKPGATVKISCKVSGFTLTNYGMNWVRQAPGQGLEWMGWINTDTGEPTYADDFKGRFVFSLDTSVSTAYLQISSLKAEDTAVYYCARNPPYYYGTNNAEAMDYWGQGTTVTVSS
VL: DIQMTQSPSSLSASVGDRVTITCSSSQDISNYLNWYQQKPGKAPKLLIYYTSTLHLGIPPRFSGSGYGTDFTLTINNIESEDAAYYFCQQYYNLPWTFGQGTKVEIKR

- binding [1]: binds
B2: BAP050-hum11-Ser (antibody, human IgG4 S228P, kappa, V domains shown)
VH: B1 VH with E1Q, T17S, I20V, V24A, P41R, G44R, M48I
VL: DIQMTQSPSSLSASVGDRVTITCSSSQDISNYLNWYLQKPGQSPQLLIYYTSTLHLGVPSRFSGSGSGTEFTLTISSLQPDDFATYYCQQYYNLPWTFGQGTKVEIKR

- binding [1]: binds
B3: BAP050-hum12-Ser (antibody, human IgG4 S228P, kappa, V domains shown)
VH: B1 VH with E1Q, T17S, I20V, V24A, P41R, G44R, M48I
VL: EIVLTQSPDFQSVTPKEKVTITCSSSQDISNYLNWYQQKPGQAPRLLIYYTSTLHLGVPSRFSGSGSGTDFTLTISSLQPEDFATYYCQQYYNLPWTFGQGTKVEIKR

- binding [1]: binds
B4: BAP050-hum09-Ser (antibody, human IgG4 S228P, kappa, V domains shown)
VH: B1 VH with E1Q, T17S, I20V, V24A, P41R, G44R, M48I
VL: B1 VL

- binding [1]: binds
B5: BAP050-hum13-Ser (antibody, human IgG4 S228P, kappa, V domains shown)
VH: B1 VH with E1Q, T17S, I20V, V24A
VL: B1 VL

- binding [2]: binds
- binding [3]: binds
- binding [1]: binds
B6: murine anti-LAG-3 monoclonal antibody BAP050 (antibody, V domains shown)
VH: QIQLVQSGPELKKPGETVKISCKASGFTLTNYGMNWVRQTPGKGLKWMGWINTDTGEPTYADDFKGRFAFSLETSASTASLQINNLKNADTATYFCARNPPYYYGTNNAEAMDYWGQGTAVTVSS
VL: DIQMTQTTSSLSASLGDRVTISCSSSQDISNYLNWYQQKPDGTVKVLIYYTSTLHLGVPSRFSGSGSGTDYSLTISNLELEDIATYYCQQYYNLPWTFGGGTKLEIK

- binding [1]: binds
B7: BAP050-chi (antibody, human IgG4 S228P, kappa, V domains shown)
VH: B6 VH with A120T
VL: DIQMTQTTSSLSASLGDRVTISCSSSQDISNYLNWYQQKPDGTVKVLIYYTSTLHLGVPSRFSGSGSGTDYSLTISNLELEDIATYYCQQYYNLPWTFGQGTKVEIKR
